The supplement of paper PMC10849652
The other results are listed elsewhere or left out.

Sequences of proteins named here, by UniProt entry; tags and fusion partners are left off. A change or cut given only in a name is not applied to a line headed by its entry.
UniProt Q7Z591: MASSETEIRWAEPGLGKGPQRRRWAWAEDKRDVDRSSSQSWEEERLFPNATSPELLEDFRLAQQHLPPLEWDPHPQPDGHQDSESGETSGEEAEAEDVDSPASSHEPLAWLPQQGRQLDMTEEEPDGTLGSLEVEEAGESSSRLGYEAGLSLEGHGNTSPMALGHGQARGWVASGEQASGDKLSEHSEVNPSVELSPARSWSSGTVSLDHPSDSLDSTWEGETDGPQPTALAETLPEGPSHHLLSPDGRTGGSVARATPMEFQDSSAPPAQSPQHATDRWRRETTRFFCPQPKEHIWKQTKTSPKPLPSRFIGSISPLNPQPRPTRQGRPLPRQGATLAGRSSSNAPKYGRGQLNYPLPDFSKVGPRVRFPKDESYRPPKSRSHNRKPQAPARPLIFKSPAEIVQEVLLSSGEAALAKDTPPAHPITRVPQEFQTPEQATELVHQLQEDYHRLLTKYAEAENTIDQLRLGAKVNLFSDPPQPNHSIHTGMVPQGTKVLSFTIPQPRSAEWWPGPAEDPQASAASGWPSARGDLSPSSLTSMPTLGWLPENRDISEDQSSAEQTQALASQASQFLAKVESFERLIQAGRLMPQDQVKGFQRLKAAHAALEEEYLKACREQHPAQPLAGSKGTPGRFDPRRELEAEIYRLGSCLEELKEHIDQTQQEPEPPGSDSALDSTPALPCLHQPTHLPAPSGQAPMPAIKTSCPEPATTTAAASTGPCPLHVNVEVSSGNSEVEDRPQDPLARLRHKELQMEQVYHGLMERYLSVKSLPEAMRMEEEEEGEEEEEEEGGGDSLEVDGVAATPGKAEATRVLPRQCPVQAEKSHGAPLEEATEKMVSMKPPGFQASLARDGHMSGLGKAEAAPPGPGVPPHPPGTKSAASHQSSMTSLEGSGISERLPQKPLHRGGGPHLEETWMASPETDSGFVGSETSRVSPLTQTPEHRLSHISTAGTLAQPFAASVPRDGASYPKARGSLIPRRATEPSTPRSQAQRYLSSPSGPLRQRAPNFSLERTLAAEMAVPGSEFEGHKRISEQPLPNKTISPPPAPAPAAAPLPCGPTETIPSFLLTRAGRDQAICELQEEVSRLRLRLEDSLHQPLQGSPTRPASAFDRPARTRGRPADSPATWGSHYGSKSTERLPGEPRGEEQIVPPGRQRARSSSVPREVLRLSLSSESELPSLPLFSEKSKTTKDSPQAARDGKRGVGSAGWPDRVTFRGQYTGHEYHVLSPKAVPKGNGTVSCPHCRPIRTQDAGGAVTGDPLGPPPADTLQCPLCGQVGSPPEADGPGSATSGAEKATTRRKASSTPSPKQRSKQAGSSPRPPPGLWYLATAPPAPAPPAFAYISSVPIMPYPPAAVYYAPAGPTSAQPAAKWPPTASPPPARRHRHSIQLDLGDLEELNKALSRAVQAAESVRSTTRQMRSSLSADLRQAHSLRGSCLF
UniProt P55008: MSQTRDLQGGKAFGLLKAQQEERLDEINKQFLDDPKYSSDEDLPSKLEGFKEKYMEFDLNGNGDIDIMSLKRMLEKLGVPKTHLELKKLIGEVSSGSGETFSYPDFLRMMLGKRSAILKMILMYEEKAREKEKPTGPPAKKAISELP
UniProt Q2TAA5: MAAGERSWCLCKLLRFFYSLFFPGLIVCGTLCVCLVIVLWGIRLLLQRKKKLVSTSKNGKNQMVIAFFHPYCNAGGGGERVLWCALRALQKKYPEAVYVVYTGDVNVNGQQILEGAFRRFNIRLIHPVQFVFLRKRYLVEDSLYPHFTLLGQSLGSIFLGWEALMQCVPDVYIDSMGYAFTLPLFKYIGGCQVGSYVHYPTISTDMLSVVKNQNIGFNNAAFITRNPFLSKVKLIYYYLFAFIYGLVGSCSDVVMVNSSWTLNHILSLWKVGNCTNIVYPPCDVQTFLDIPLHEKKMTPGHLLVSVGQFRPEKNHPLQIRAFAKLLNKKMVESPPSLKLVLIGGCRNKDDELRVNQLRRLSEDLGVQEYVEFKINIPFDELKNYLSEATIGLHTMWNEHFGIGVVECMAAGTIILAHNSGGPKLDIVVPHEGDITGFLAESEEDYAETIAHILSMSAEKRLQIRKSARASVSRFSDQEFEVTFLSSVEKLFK
UniProt Q3MIX3: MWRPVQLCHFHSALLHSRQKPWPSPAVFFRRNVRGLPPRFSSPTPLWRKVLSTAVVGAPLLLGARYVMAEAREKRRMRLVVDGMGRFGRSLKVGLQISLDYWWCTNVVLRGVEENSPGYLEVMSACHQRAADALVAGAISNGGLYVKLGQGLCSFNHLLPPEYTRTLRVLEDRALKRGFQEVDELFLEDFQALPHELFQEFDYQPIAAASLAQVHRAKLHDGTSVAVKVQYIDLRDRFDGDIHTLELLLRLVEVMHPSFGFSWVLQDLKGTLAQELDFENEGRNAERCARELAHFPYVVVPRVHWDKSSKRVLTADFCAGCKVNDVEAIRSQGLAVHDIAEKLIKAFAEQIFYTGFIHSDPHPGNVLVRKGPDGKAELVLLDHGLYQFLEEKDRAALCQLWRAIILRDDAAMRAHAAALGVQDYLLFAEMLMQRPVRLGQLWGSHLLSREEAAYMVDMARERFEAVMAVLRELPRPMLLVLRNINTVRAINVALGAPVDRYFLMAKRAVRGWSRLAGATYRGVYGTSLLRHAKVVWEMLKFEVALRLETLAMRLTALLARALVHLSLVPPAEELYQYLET
UniProt Q8WV93: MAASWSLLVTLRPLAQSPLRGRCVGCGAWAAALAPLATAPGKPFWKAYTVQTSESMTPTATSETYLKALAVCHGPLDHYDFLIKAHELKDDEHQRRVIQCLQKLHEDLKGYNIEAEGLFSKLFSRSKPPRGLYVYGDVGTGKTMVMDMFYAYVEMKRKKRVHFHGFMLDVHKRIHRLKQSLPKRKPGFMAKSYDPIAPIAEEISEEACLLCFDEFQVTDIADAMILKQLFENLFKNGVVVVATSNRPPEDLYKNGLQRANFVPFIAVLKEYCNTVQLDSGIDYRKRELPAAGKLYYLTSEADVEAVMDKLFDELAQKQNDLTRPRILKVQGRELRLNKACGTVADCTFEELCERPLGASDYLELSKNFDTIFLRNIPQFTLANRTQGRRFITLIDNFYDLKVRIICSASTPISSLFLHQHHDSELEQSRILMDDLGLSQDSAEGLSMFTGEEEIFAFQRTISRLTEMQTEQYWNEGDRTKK
UniProt Q96P47: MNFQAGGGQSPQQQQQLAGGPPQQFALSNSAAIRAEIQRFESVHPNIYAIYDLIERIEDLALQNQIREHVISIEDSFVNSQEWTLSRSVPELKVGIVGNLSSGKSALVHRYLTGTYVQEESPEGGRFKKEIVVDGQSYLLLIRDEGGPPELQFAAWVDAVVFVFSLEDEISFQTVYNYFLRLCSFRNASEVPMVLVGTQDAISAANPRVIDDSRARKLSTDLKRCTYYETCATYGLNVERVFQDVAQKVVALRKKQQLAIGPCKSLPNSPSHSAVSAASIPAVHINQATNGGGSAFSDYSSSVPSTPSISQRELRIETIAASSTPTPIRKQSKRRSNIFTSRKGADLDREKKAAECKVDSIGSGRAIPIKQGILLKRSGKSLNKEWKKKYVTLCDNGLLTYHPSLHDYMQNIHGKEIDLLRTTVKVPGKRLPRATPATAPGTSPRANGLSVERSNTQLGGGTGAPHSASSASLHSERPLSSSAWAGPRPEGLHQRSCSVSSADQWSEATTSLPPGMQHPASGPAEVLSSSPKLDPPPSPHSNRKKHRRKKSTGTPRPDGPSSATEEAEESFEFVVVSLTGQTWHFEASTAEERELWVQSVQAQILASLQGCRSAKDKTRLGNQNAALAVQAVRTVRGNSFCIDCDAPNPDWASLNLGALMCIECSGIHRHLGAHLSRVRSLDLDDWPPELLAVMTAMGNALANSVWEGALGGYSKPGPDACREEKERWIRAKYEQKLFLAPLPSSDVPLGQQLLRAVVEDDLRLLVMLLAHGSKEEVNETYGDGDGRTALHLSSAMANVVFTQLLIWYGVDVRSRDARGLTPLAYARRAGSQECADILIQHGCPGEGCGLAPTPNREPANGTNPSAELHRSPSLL
UniProt Q3LIE5: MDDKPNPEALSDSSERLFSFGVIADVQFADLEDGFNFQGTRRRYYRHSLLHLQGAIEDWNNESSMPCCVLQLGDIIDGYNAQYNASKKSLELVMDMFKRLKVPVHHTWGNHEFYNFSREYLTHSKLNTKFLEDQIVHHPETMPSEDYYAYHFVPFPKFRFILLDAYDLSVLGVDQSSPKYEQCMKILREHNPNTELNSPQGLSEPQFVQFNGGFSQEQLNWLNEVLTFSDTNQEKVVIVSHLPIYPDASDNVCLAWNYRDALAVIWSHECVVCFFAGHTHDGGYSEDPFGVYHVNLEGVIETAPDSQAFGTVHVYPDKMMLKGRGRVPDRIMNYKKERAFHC
UniProt Q9NYG5, whole entry, looked up: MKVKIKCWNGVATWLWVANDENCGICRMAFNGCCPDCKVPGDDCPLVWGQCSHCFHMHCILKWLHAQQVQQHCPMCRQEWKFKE
UniProt P02760: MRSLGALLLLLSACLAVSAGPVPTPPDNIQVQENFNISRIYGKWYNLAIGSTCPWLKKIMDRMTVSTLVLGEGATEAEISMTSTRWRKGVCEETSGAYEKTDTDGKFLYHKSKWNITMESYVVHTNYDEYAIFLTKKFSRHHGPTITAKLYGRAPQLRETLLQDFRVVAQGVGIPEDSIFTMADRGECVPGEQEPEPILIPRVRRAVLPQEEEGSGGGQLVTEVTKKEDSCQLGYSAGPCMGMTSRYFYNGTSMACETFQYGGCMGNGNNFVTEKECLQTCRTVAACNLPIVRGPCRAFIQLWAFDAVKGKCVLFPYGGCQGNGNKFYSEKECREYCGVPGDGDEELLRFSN
UniProt Q9C0C7: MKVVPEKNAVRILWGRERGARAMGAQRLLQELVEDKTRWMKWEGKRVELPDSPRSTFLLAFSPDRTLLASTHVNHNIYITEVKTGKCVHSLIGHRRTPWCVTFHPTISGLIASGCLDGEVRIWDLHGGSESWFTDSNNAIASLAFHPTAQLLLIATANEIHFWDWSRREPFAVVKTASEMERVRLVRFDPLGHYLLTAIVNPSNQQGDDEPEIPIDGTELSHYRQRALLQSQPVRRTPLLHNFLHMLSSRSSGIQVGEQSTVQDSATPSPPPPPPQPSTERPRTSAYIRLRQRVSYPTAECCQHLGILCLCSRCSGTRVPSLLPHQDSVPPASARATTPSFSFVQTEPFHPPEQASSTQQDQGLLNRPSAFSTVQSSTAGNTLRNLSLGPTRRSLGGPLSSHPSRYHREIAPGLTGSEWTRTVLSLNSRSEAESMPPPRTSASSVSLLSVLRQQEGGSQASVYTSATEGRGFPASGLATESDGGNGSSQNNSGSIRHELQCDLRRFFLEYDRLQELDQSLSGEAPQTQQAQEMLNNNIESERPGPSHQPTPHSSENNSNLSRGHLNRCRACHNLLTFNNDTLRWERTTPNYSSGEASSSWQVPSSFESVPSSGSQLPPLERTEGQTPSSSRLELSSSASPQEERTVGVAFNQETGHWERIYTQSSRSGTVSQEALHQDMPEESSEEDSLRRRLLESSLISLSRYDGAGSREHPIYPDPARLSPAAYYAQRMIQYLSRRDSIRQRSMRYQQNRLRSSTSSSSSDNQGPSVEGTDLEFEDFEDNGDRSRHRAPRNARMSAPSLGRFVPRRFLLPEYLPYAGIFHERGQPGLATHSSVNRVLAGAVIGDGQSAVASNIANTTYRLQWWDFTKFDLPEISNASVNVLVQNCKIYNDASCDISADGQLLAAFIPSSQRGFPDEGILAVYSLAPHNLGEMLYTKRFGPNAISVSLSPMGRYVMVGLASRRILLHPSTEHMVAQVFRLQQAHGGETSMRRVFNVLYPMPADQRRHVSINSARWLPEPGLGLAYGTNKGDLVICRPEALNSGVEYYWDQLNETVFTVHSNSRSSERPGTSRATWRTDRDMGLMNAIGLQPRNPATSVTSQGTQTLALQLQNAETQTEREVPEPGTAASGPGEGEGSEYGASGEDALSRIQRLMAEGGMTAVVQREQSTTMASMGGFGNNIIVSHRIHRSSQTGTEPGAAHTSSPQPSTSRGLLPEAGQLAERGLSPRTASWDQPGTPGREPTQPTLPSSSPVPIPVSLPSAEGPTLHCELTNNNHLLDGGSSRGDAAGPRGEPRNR
UniProt P51648: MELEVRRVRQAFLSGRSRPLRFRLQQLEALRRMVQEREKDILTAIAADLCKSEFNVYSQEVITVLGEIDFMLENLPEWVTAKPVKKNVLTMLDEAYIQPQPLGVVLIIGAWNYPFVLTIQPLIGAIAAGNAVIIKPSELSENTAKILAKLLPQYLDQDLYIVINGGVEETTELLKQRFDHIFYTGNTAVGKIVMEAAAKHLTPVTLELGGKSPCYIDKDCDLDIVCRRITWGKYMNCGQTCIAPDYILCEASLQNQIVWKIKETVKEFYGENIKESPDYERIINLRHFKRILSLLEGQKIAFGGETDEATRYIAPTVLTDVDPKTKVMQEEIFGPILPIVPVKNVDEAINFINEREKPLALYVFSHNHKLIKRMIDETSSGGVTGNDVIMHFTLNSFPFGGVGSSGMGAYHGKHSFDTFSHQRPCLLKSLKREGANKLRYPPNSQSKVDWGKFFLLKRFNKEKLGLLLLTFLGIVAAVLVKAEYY

Key:
Assay in all cases: log2 fold change, soluble protein after heating vs DMSO (PISA); higher = thermal stabilisation; K562 cells, 10 uM, 30 min; active = over 0.2 and 3.5 SD of the protein, either way, in both replicates (recomputed)
[1] = compound: NC(=O)Nc1cc(-c2cccc(F)c2)sc1C(=O)N[C@H]1CCCNC1
Procedure, shortened: (§1)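 Soluble protein was quantified by TMTpro 16plex LC-MS/MS after channel sums were equalised. It was obtained as the supernatant after 21,000xg for 90 min from pooled aliquots of K562 cells (2×10^6 cells/mL, 10 μM compound, 30 min) heated for 3 min across 48°C-58°C and extracted in PBS with 0.5% NP-40 at 4°C. Thermal stability values are relative to control samples and come from duplicates. They are given as log2 fold changes.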

[2] = compound: NC1(c2ccc(-c3nc4ccn5c(=O)[nH]nc5c4cc3-c3ccccc3)cc2)CCC1
Procedure, shortened: as §1

entinostat = compound: Nc1ccccc1NC(=O)c1ccc(CNC(=O)OCc2cccnc2)cc1 [entinostat]
Procedure, shortened: as §1

silmitasertib = compound: O=C(O)c1ccc2c(c1)nc(Nc1cccc(Cl)c1)c1ccncc12 [silmitasertib]
Procedure, shortened: as §1

[3] = compound: NC(=O)c1cnc(N[C@@H]2CCCC[C@@H]2N)nc1Nc1cccc(-n2nccn2)c1
Procedure, shortened: as §1

[4] = compound: NCC(=O)Nc1ccc(-n2nc(C(F)(F)F)cc2-c2ccc3c(ccc4ccccc43)c2)cc1
Procedure, shortened: as §1

[5] = compound: O=C1NC(=O)C(c2cnc3ccccn23)=C1c1cn2c3c(cc(F)cc13)CN(C(=O)N1CCCCC1)CC2
Procedure, shortened: as §1

vorinostat = compound: O=C(CCCCCCC(=O)Nc1ccccc1)NO [vorinostat]
Procedure, shortened: as §1

citarinostat = compound: O=C(CCCCCCNC(=O)c1cnc(N(c2ccccc2)c2ccccc2Cl)nc1)NO [citarinostat]
Procedure, shortened: as §1

[6] = compound: c1cc(OCCN2CCCCC2)cc(-c2n[nH]c3ccc(-c4nnc[nH]4)cc23)c1
Procedure, shortened: as §1

Measured: log2 fold change

ADD2 isoform 9 (UniProt P35612)
inactive: [1] 0 | entinostat -0.052 | silmitasertib -0.225
active: [2] -1.2

AKNA (UniProt Q7Z591)
active: entinostat 1.72
inactive: [1] -0.069

AIF1 (UniProt P55008)
inactive: [1] 0.04 | [3] 0.004 | [4] 0.021 | entinostat -0.105 | [5] 0.068

ALG11 (UniProt Q2TAA5)
inactive: [1] -0.052 | [3] 0.032 | [2] -0.093 | [4] -0.019 | entinostat 0.01 | vorinostat -0.038 | citarinostat 0.039 | silmitasertib 0.008 | [5] -0.002 | [6] -0.08

AGO4 (UniProt Q9HCK5)
inactive: [1] 0.223 | [3] 0.007 | [2] 0.037 | [4] 0.091 | entinostat -0.069 | vorinostat 0.082 | citarinostat 0.046 | silmitasertib 0.028 | [5] 0.073 | [6] -0.152

ALDH7A1 (UniProt P49419)
inactive: [1] 0.11 | [2] -0.008 | entinostat 0.029 | vorinostat -0.075 | citarinostat -0.002 | silmitasertib 0.107 | [5] -0.053 | [6] 0.291

ALG10B (UniProt Q5I7T1)
inactive: [1] -0.022 | [3] -0.088 | [2] -0.164 | [4] 0.142 | entinostat 0.028 | vorinostat -0.026 | citarinostat -0.032 | silmitasertib 0.041 | [5] 0.065 | [6] -0.123

ADCK5 (UniProt Q3MIX3)
inactive: [1] 0.034 | [4] -0.358 | entinostat -0.119 | citarinostat -0.428 | [5] 0.259 | [6] 0.047

ADNP (UniProt Q9H2P0)
inactive: [1] -0.06 | [3] -0.069 | [2] 0.05 | entinostat -0.002 | vorinostat 0.001 | silmitasertib -0.237

ADCY3 (UniProt O60266)
inactive: [1] -0.172 | [3] -0.118 | [4] -0.121 | entinostat 0.04 | vorinostat 0.092

ALKBH8 isoform 4 (UniProt Q96BT7)
inactive: [1] -0.025 | [2] -0.054 | entinostat 0.084 | vorinostat -0.083 | citarinostat 0.039 | silmitasertib 0.055 | [5] 0.05 | [6] -0.131

AFG1L (UniProt Q8WV93)
inactive: [1] -0.021 | [3] 0.008 | [2] 0.019 | [4] -0.178 | entinostat 0.095 | citarinostat -0.004 | silmitasertib 0.009 | [5] -0.009 | [6] -0.057

ALOX12B (UniProt O75342)
inactive: [1] -0.043 | [3] 0.177 | [2] 0.036 | [4] -0.318 | entinostat -0.065 | citarinostat 0 | silmitasertib 0.014 | [6] 0.13

ALDH1L1 isoform 3 (UniProt O75891)
inactive: [1] -0.07 | entinostat 0.17

AMZ2 (UniProt Q86W34)
inactive: [1] 0.021 | [2] -0.049 | entinostat 0.027 | silmitasertib -0.104 | [5] -0.075

AGAP3 isoform 4 (UniProt Q96P47)
inactive: [1] 0.034 | [3] -0.128 | [2] -0.001 | entinostat 0.021 | citarinostat -0.063 | silmitasertib -0.019 | [5] 0.127 | [6] -0.18

ADPRM (UniProt Q3LIE5)
inactive: [1] -0.135 | entinostat -0.053

AIG1 (UniProt Q9NVV5)
inactive: [3] -0.253 | vorinostat 0.18

AFF1 isoform 2 (UniProt P51825)
inactive: [3] -0.079 | [2] 0 | [4] -0.119 | vorinostat 0.164 | citarinostat -0.053 | silmitasertib -0.007 | [5] 0.1 | [6] -0.33

ANAPC11 (UniProt Q9NYG5)
inactive: [4] 0.059 | citarinostat 0.18 | [6] -0.038

ADGRD1 isoform 4 (UniProt Q6QNK2)
inactive: [3] -0.12 | [2] -0.153 | [4] -0.192 | citarinostat 0.16 | silmitasertib 0.102 | [6] -0.406

AGAP1 (UniProt Q9UPQ3)
inactive: [4] 0.025

AMBP (UniProt P02760)
inactive: [2] 0.119 | [4] 0.216 | vorinostat 0.247 | citarinostat -0.04 | silmitasertib 0.125 | [6] 0.547

AMBRA1 isoform 5 (UniProt Q9C0C7)
inactive: [3] -0.055 | [2] -0.169 | [4] -0.194 | silmitasertib -0.036 | [5] -0.188

Retrieved one by one from the list above (2):
ANAPC11 (UniProt Q9NYG5)
inactive: [4] 0.059 | citarinostat 0.18 | [6] -0.038

ADGRD1 isoform 4 (UniProt Q6QNK2)
inactive: [3] -0.12 | [2] -0.153 | [4] -0.192 | citarinostat 0.16 | silmitasertib 0.102 | [6] -0.406

(next part)

AGA (UniProt P20933)
inactive: [2] -0.076 | vorinostat -0.027 | citarinostat -0.003 | silmitasertib 0.101 | [6] -0.016

AGGF1 (UniProt Q8N302)
inactive: [2] 0.018 | silmitasertib 0.172

ADGRL1 (UniProt O94910)
inactive: vorinostat 0.074

ALDH3A2 isoform 2 (UniProt P51648)
inactive: [4] -0.012

ADCY7 (UniProt P51828)
inactive: [3] 0.164 | vorinostat 0.519 | [5] -0.063

AMMECR1 (UniProt Q9Y4X0)
inactive: [3] -0.166 | [4] -0.205 | [5] 0.069

AEBP2 (UniProt Q6ZN18)
inactive: citarinostat -0.182 | [5] 0.038 | [6] 0.078

AGTPBP1 isoform 3 (UniProt Q9UPW5)
inactive: [2] -0.623 | [4] -0.355 | silmitasertib 0.301

ADD1 isoform 4 (UniProt P35611)
inactive: vorinostat 0.05 | [5] 0.027

AKAP9 isoform 6 (UniProt Q99996)
inactive: [2] 0.007 | citarinostat -0.1 | silmitasertib -0.014 | [5] -0.218 | [6] -0.015

AGTRAP isoform 2 (UniProt Q6RW13)
inactive: vorinostat 0.007 | citarinostat -0.039 | [6] -0.016

AKR1D1 (UniProt P51857)
inactive: [3] 0.06 | [4] -0.038 | vorinostat 0.041

ALG14 (UniProt Q96F25)
inactive: [3] 0.018 | [2] -0.118 | [4] -0.081 | vorinostat 0.29 | citarinostat 0.028 | silmitasertib 0.076 | [5] 0.061 | [6] -0.123

AKR1C1 (UniProt Q04828)
inactive: [2] -0.009 | silmitasertib 0.25
